Results from patent publication US5723594.
Negatives hold for the conditions tested.

Protein sequences, listed by entry. Tags and fused reporters are not part of them. Residues count along the entry.
UniProt P01127, 82-190: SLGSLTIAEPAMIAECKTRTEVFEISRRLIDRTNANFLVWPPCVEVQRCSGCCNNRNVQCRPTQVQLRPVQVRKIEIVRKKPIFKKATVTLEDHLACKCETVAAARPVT

Biological target: PDGF-BB (Homo sapiens) (UniProt P01127)
Experiment: activity in cells
Details: 3'-3' linked inverted T at 3' end; control ligand; thymidine incorporation; purified recombinant protein; protein details: R&D Systems, carrier-free, E. coli produced; single-stranded DNA; dose not given here

“CAGTCCGTGGTAGGGCAGGTTGGGGTGACTTCGTGGAAT [T39 (thrombin ligand)]” was tested, and the “functional effect of the aptamer” value was “not active”.
